PMC10888192, “New Derivatives of 1-(3-Methyl-1-Benzofuran-2-yl)Ethan-1-one: Synthesis and Preliminary Studies of Biological Activity” (International Journal of Molecular Sciences, 2024)

The molecules below were run on K562 cells (human chronic myelogenous leukemia) (assay: MTT cytotoxicity assay, K562). Conditions: ratio of IC50 values in HaCat to cancer cells (K562).
Assay type: cell-based
Method: The cell viability was analyzed at the following six concentrations of compounds: 5, 10, 20, 40, 60 and 100 µM after 72 h incubation.
Additionally, to determine the safety profile of the tested compounds, the therapeutic index (TI) (the ratio of IC50 value in HaCaT to cancer cells K562) was calculated. […] The goal of conducting the MTT assay in this research was to select benzofuran derivatives, which manage to reduce viability of cancer cells while exposing mild effects on normal healthy cells.
The cytotoxicity was evaluated by MTT reduction assay, which measures mitochondrial respiratory function. The test was performed based on the method described by Präbst et al.. Cells (1 × 10^4/well), in logarithmic phase, were seeded into 96-well plates in appropriate medium. After 24 h, cells were exposed to test compounds. […] After 72 h, the medium with the compounds was completely removed and MTT solution (0.5 mg/mL) in fresh medium without serum was added to each well. Plates with cells were incubated for 4 h at 37 °C in the dark. Then, MTT solution was removed and replenished with 0.1 mL DMSO: isopropanol (1:1) mixture to dissolve the generated formazan crystals. The optical density was measured with a […] GO (ThermoScientific) microplate reader at 570 nm. Replicates of three wells for each dosage, including vehicle control, were analyzed for each experiment. The experiments were conducted in triplicate. Control cells which were only treated with respective medium were used as the 100% viability value. […] Additionally, to determine the safety profile of the test compounds, therapeutic indexes (TI) (the ratio of IC50 values in HaCat to cancer cells (K562, PC3, SW620, Cack-1)) were calculated.

Point of comparison: `COc1ccc2oc(C(C)=O)c(CBr)c2c1` [Compound 5, 1-[3-(Bromomethyl)-5-Methoxy-1-Benzofuran-2-yl]Ethanone], “Therapeutic index (TI)” value 1.450. Against it:
- COc1cc(OC)c2c(C)c(C(C)=O)oc2c1 [Compound 2, 1-(4,6-Dimethoxy-3-Methyl-1-Benzofuran-2-yl)Ethanone] — higher, 1.853
- CCOc1ccc2c(C)c(C(C)=O)oc2c1 [Compound 4, 1-(6-Ethoxy-3-Methyl-1-Benzofuran-2-yl)Ethanone] — lower, 0.925
- COc1cc2oc(C(C)=O)c(CBr)c2c(OC)c1Br [Compound 7, 1-[5-Bromo-3-(Bromomethyl)-4,6-Dimethoxy-1-Benzofuran-2-yl]Ethanone] — lower, 0.114
- CCOc1ccc2c(CBr)c(C(C)=O)oc2c1 [Compound 9, 1-[3-(Bromomethyl)-6-Ethoxy-1-Benzofuran-2-yl]Ethanone] — higher, 1.583
